Measurements as given in publication PMC10323252.

Chains of the proteins cited; added tags and fusions are not shown.
UniProt P62491: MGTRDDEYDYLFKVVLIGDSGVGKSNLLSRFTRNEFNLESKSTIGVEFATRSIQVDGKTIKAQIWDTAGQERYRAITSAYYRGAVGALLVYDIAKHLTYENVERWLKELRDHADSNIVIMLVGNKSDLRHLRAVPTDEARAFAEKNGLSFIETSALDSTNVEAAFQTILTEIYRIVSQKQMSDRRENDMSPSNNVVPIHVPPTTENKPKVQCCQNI

T1: mycBirA*–Rab25 (UniProt P57735)
T1 sequence: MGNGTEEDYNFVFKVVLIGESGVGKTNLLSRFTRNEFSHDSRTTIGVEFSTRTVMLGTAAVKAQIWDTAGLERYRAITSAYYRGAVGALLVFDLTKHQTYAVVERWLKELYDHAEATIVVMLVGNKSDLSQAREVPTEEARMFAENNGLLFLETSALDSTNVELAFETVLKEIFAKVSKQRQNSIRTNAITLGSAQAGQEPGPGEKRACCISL


Tests used:
mycBirA*–Rab25 = target: T1, mycBirA*–Rab25; assay: proximity labelling; BioID: A2780 cells stably expressing mycBirA*-Rab baits (mycBirA* alone as control), 1 uM biotin for 16 h; lysis in 0.4% SDS, 500 mM NaCl buffer; streptavidin microspheres; LC-MS/MS with label-free quantification, four replicates; high-confidence list by SAINTexpress (BFDR<=0.05), longlist by >2-fold enrichment; biotin-modified peptides also scored
mycBirA*–Rab11a = mycBirA*–Rab11a (UniProt P62491); assay: as above

Row | Binder | binding (mycBirA*–Rab25) | binding (mycBirA*–Rab11a)
1 | OSBPL11 (protein, UniProt Q9BXB4 1-747) MQGGEPVSTMKVSESEGKLEGQATAVTPNKNSSCGGGISSSSSSRGGSAKGWQYSDHMENVYGYLMKYTNLVTGWQYRFFVLNNEAGLLEYFVNEQSRNQKPRGTLQLAGAVISPSDEDSHTFTVNAASGEQYKLRATDAKERQHWVSRLQICTQHHTEAIGKNNPPLKSRSFSLASSSNSPISQRRPSQNAISFFNVGHSKLQSLSKRTNLPPDHLVEVREMMSHAEGQQRDLIRRIECLPTSGHLSSLDQDLLMLKATSMATMNCLNDCFHILQLQHASHQKGSLPSGTTIEWLEPKISLSNHYKNGADQPFATDQSKPVAVPEEQPVAESGLLAREPEEINADDEIEDTCDHKEDDLGAVEEQRSVILHLLSQLKLGMDLTRVVLPTFILEKRSLLEMYADFMSHPDLFIAITNGATAEDRMIRFVEYYLTSFHEGRKGAIAKKPYNPIIGETFHCSWKMPKSEVASSVFSSSSTQGVTNHAPLSGESLTQVGSDCYTVRFVAEQVSHHPPVSGFYAECTERKMCVNAHVWTKSKFLGMSIGVTMVGEGILSLLEHGEEYTFSLPCAYARSILTVPWVELGGKVSVNCAKTGYSASITFHTKPFYGGKLHRVTAEVKHNITNTVVCRVQGEWNSVLEFTYSNGETKYVDLTKLAVTKKRVRPLEKQDPFESRRLWKNVTDSLRESEIDKATEHKHTLEERQRTEERHRTETGTPWKTKYFIKEGDGWVYHKPLWKIIPTTQPAE | binds | binds
2 | EHD1 (protein, UniProt Q9H4M9 1-534) MFSWVSKDARRKKEPELFQTVAEGLRQLYAQKLLPLEEHYRFHEFHSPALEDADFDNKPMVLLVGQYSTGKTTFIRHLIEQDFPGMRIGPEPTTDSFIAVMHGPTEGVVPGNALVVDPRRPFRKLNAFGNAFLNRFMCAQLPNPVLDSISIIDTPGILSGEKQRISRGYDFAAVLEWFAERVDRIILLFDAHKLDISDEFSEVIKALKNHEDKIRVVLNKADQIETQQLMRVYGALMWSLGKIINTPEVVRVYIGSFWSHPLLIPDNRKLFEAEEQDLFKDIQSLPRNAALRKLNDLIKRARLAKVHAYIISSLKKEMPNVFGKESKKKELVNNLGEIYQKIEREHQISPGDFPSLRKMQELLQTQDFSKFQALKPKLLDTVDDMLANDIARLMVMVRQEESLMPSQVVKGGAFDGTMNGPFGHGYGEGAGEGIDDVEWVVGKDKPTYDEIFYTLSPVNGKITGANAKKEMVKSKLPNTVLGKIWKLADVDKDGLLDDEEFALANHLIKVKLEGHELPADLPPHLVPPSKRRHE | binds | binds
3 | TBC1D2B (protein, UniProt Q9UPU7 1-963) MPGAGARAEEGGGGGEGAAQGAAAEPGAGPAREPARLCGYLQKLSGKGPLRGYRSRWFVFDARRCYLYYFKSPQDALPLGHLDIADACFSYQGPDEAAEPGTEPPAHFQVHSAGAVTVLKAPNRQLMTYWLQELQQKRWEYCNSLDMVKWDSRTSPTPGDFPKGLVARDNTDLIYPHPNASAEKARNVLAVETVPGELVGEQAANQPAPGHPNSINFYSLKQWGNELKNSMSSFRPGRGHNDSRRTVFYTNEEWELLDPTPKDLEESIVQEEKKKLTPEGNKGVTGSGFPFDFGRNPYKGKRPLKDIIGSYKNRHSSGDPSSEGTSGSGSVSIRKPASEMQLQVQSQQEELEQLKKDLSSQKELVRLLQQTVRSSQYDKYFTSSRLCEGVPKDTLELLHQKDDQILGLTSQLERFSLEKESLQQEVRTLKSKVGELNEQLGMLMETIQAKDEVIIKLSEGEGNGPPPTVAPSSPSVVPVARDQLELDRLKDNLQGYKTQNKFLNKEILELSALRRNAERRERDLMAKYSSLEAKLCQIESKYLILLQEMKTPVCSEDQGPTREVIAQLLEDALQVESQEQPEQAFVKPHLVSEYDIYGFRTVPEDDEEEKLVAKVRALDLKTLYLTENQEVSTGVKWENYFASTVNREMMCSPELKNLIRAGIPHEHRSKVWKWCVDRHTRKFKDNTEPGHFQTLLQKALEKQNPASKQIELDLLRTLPNNKHYSCPTSEGIQKLRNVLLAFSWRNPDIGYCQGLNRLVAVALLYLEQEDAFWCLVTIVEVFMPRDYYTKTLLGSQVDQRVFRDLMSEKLPRLHGHFEQYKVDYTLITFNWFLVVFVDSVVSDILFKIWDSFLYEGPKVIFRFALALFKYKEEEILKLQDSMSIFKYLRYFTRTILDARKLISISFGDLNPFPLRQIRNRRAYHLEKVRLELTELEAIREDFLRERDTSPDKGELVSDEEEDT | binds | binds
4 | TBC1D22B (protein, UniProt Q9NU19 1-505) MAAENSKQFWKRSAKLPGSIQPVYGAQHPPLDPRLTKNFIKERSKVNTVPLKNKKASSFHEFARNTSDAWDIGDDEEEDFSSPSFQTLNSKVALATAAQVLENHSKLRVKPERSQSTTSDVPANYKVIKSSSDAQLSRNSSDTCLRNPLHKQQSLPLRPIIPLVARISDQNASGAPPMTVREKTRLEKFRQLLSSQNTDLDELRKCSWPGVPREVRPITWRLLSGYLPANTERRKLTLQRKREEYFGFIEQYYDSRNEEHHQDTYRQIHIDIPRTNPLIPLFQQPLVQEIFERILFIWAIRHPASGYVQGINDLVTPFFVVFLSEYVEEDVENFDVTNLSQDMLRSIEADSFWCMSKLLDGIQDNYTFAQPGIQKKVKALEELVSRIDEQVHNHFRRYEVEYLQFAFRWMNNLLMRELPLRCTIRLWDTYQSEPEGFSHFHLYVCAAFLIKWRKEILDEEDFQGLLMLLQNLPTIHWGNEEIGLLLAEAYRLKYMFADAPNHYRR | binds | binds

The next lines start with the values.

Row | binding (mycBirA*–Rab25) | binding (mycBirA*–Rab11a) | Binder
5 | binds | binds | SH3BP5L (protein, UniProt Q7L8J4 1-393) MAELRQVPGGRETPQGELRPEVVEDEVPRSPVAEEPGGGGSSSSEAKLSPREEEELDPRIQEELEHLNQASEEINQVELQLDEARTTYRRILQESARKLNTQGSHLGSCIEKARPYYEARRLAKEAQQETQKAALRYERAVSMHNAAREMVFVAEQGVMADKNRLDPTWQEMLNHATCKVNEAEEERLRGEREHQRVTRLCQQAEARVQALQKTLRRAIGKSRPYFELKAQFSQILEEHKAKVTELEQQVAQAKTRYSVALRNLEQISEQIHARRRGGLPPHPLGPRRSSPVGAEAGPEDMEDGDSGIEGAEGAGLEEGSSLGPGPAPDTDTLSLLSLRTVASDLQKCDSVEHLRGLSDHVSLDGQELGTRSGGRRGSDGGARGGRHQRSVSL
6 | binds | binds | Rab11-family-interacting protein (FIP) 1 (protein, UniProt Q6WKZ4 1-1283) MSLMVSAGRGLGAVWSPTHVQVTVLQARGLRAKGPGGTSDAYAVIQVGKEKYATSVSERSLGAPVWREEATFELPSLLSSGPAAAATLQLTVLHRALLGLDKFLGRAEVDLRDLHRDQGRRKTQWYKLKSKPGKKDKERGEIEVDIQFMRNNMTASMFDLSMKDKSRNPFGKLKDKIKGKNKDSGSDTASAIIPSTTPSVDSDDESVVKDKKKKSKIKTLLSKSNLQKTPLSQSMSVLPTSKPEKVLLRPGDFQSQWDEDDNEDESSSASDVMSHKRTASTDLKQLNQVNFTLPKKEGLSFLGGLRSKNDVLSRSNVCINGNHVYLEQPEAKGEIKDSSPSSSPSPKGFRKKHLFSSTENLAAGSWKEPAEGGGLSSDRQLSESSTKDSLKSMTLPSYRPAPLVSGDLRENMAPANSEATKEAKESKKPESRRSSLLSLMTGKKDVAKGSEGENPLTVPGREKEGMLMGVKPGEDASGPAEDLVRRSEKDTAAVVSRQGSSLNLFEDVQITEPEAEPESKSEPRPPISSPRAPQTRAVKPRLEVSPEAQPTARLPSPTDSPSSLPPLPSSSGQASVPSELGHGADTQSSESPSVFSSLSSPIAAPISTSTPIESWPLVDRGQAKSEGPPLLPKAELQTESLTPVPNSGSSALGSLFKQPSFPANKGTEDSLMGRTRETGTEKNTSSLELEESLPEQPETGRQEEELPRFPCKKQDYSPSSGEAQEVPFALSLSSDGAVSPVGELAAGGDRDLESQAGSLVESKARDAAEEVAPPLPMGASVPSIDSMMRKLEEMGLNLRKDQKKTKKRVSFSEQLFTEEAVAGAALLVEGHSSCPQELNPAWSVAGNASDGEPPESPHAEDSERESVTTPGPATCGAPASPADHLLLPSQEESFSEVPMSEASSAKDTPLFRMEGEDALVTQYQSKASDHEGLLSDPLSDLQLVSDFKSPIMADLNLSLPSIPEVASDDERIDQVEDDGDQVEDDGETAKSSTLDIGALSLGLVVPCPERGKGPSGEADRLVLGEGLCDFRLQAPQASVTAPSEQTTEFGIHKPHLGKSSSLDKQLPGPSGGEEEKPMGNGSPSPPPGTSLDNPVPSPSPSEIFPVTHSFPSSAHSDTHHTSTAESQKKATAEGSAGRVENFGKRKPLLQAWVSPSETHPVSAQPGAGTGSAKHRLHPVKPMNAMATKVANCSLGTATIISENLNNEVMMKKYSPSDPAFAYAQLTHDELIQLVLKQKETISKKEFQVRELEDYIDNLLVRVMEETPNILRIPTQVGKKAGKM
7 | binds | binds | RABL6 (protein, UniProt Q3YEC7 1-729) MFSALKKLVGSDQAPGRDKNIPAGLQSMNQALQRRFAKGVQYNMKIVIRGDRNTGKTALWHRLQGRPFVEEYIPTQEIQVTSIHWSYKTTDDIVKVEVWDVVDKGKCKKRGDGLKMENDPQEAESEMALDAEFLDVYKNCNGVVMMFDITKQWTFNYILRELPKVPTHVPVCVLGNYRDMGEHRVILPDDVRDFIDNLDRPPGSSYFRYAESSMKNSFGLKYLHKFFNIPFLQLQRETLLRQLETNQLDMDATLEELSVQQETEDQNYGIFLEMMEARSRGHASPLAANGQSPSPGSQSPVVPAGAVSTGSSSPGTPQPAPQLPLNAAPPSSVPPVPPSEALPPPACPSAPAPRRSIISRLFGTSPATEAAPPPPEPVPAAEGPATVQSVEDFVPDDRLDRSFLEDTTPARDEKKVGAKAAQQDSDSDGEALGGNPMVAGFQDDVDLEDQPRGSPPLPAGPVPSQDITLSSEEEAEVAAPTKGPAPAPQQCSEPETKWSSIPASKPRRGTAPTRTAAPPWPGGVSVRTGPEKRSSTRPPAEMEPGKGEQASSSESDPEGPIAAQMLSFVMDDPDFESEGSDTQRRADDFPVRDDPSDVTDEDEGPAEPPPPPKLPLPAFRLKNDSDLFGLGLEEAGPKESSEEGKEGKTPSKEKKKKKKKGKEEEEKAAKKKSKHKKSKDKEEGKEERRRRQQRPPRSRERTAADELEAFLGGGAPGGRHPGGGDYEEL

These are yes or no findings as the source states them, for the method shown. Binding seen in cells or lysates may run through a third protein. Here binding means that the protein was enriched with, or labelled near, the bait; the list need not be complete. For some assays here: Tags and fused reporters may be left off the sequences shown.
